In patent US20250074896A1, “ARYLTETRAHYDROPYRIDAZINE DERIVATIVE OR SALT THEREOF AND INSECTICIDAL AGENT CONTAINING THE COMPOUND AND METHOD FOR USING SAME” (NIHON NOHYAKU CO., LTD., priority 2021, published 2025):
Some of these results come from one statement about several compounds together.

Experiments:
[1] = system: Small Brown Planthopper (Laodelphax striatellus); assay: Insecticidal test on small brown planthopper (dipped rice seedlings, 3rd-instar larvae); type: in vivo; conditions: rice seedlings dipped 30 seconds, 8 days after inoculation
[2] = system: Western Flower Thrips (Frankliniella occidentalis); assay: Insecticidal test on western flower thrips (kidney bean leaf pieces, hatched larvae); type: in vivo; conditions: 4 days after the treatment
Text: • A: the mortality rate is 100%. • B: the mortality rate is 90 to 99%. • C: the mortality rate is 80 to 89%. • D: the mortality rate is 50 to 79%. • E: the mortality rate is 0 to 49%.
Insecticidal Test on Western Flower Thrips (Frankliniella occidentalis)
Female adults of western flower thrips were inoculated onto kidney bean leaf pieces, and allowed to lay eggs thereon for one day, then the female adults were removed. After 3 days, the hatched larvae on the leaf pieces were counted, and then the agrochemical dispersions diluted to 50 ppm or 500 ppm, each of which contained the compound described in Tables 1 to 6 as an active ingredient were applied. The number of larvae of the species surviving at 4 days after the treatment was counted, and the corrected mortality rate was calculated according to the formula shown below, and the insecticidal efficacy was evaluated according to the criteria of Test Example 1. This test was conducted in duplicate.

Cn1ccc(NC(=O)C2=C(O)CN(c3ccc(C#N)cc3)N(C(=O)Oc3ccc([N+](=O)[O-])cc3)C2=O)n1 [3-549]
A (the mortality rate is 100%): insecticidal efficacy (corrected mortality rate) against small brown planthopper ([1]; 50 ppm) | insecticidal efficacy (corrected mortality rate) against small brown planthopper ([1]; 500 ppm) | insecticidal efficacy (corrected mortality rate) against western flower thrips ([2]; 500 ppm)

COC(=O)N1C(=O)C(C(=O)Nc2ccc(F)cn2)=C(O)CN1c1ccc(Cl)nc1 [3-163]
A (the mortality rate is 100%): insecticidal efficacy (corrected mortality rate) against small brown planthopper ([1]; 50 ppm) | insecticidal efficacy (corrected mortality rate) against small brown planthopper ([1]; 500 ppm) | insecticidal efficacy (corrected mortality rate) against western flower thrips ([2]; 50 ppm) | insecticidal efficacy (corrected mortality rate) against western flower thrips ([2]; 500 ppm)

COC(=O)N1C(=O)C(C(=O)Nc2ccc(C#N)cc2F)=C(O)CN1c1ccc(C#N)cc1 [3-456]
A (the mortality rate is 100%): insecticidal efficacy (corrected mortality rate) against small brown planthopper ([1]; 50 ppm) | insecticidal efficacy (corrected mortality rate) against small brown planthopper ([1]; 500 ppm) | insecticidal efficacy (corrected mortality rate) against western flower thrips ([2]; 50 ppm) | insecticidal efficacy (corrected mortality rate) against western flower thrips ([2]; 500 ppm)

COC(=O)N1C(=O)C(C(=O)Nc2ccc(F)cc2)=C(O)CN1c1ccc(C#N)c(OC)c1 [3-223]
A (the mortality rate is 100%): insecticidal efficacy (corrected mortality rate) against small brown planthopper ([1]; 50 ppm) | insecticidal efficacy (corrected mortality rate) against small brown planthopper ([1]; 500 ppm) | insecticidal efficacy (corrected mortality rate) against western flower thrips ([2]; 50 ppm) | insecticidal efficacy (corrected mortality rate) against western flower thrips ([2]; 500 ppm)

Cn1cc(NC(=O)C2=C(O)CN(c3ccc(C#N)cc3)NC2=O)cn1 [1-179]
A (the mortality rate is 100%): insecticidal efficacy (corrected mortality rate) against small brown planthopper ([1]; 50 ppm) | insecticidal efficacy (corrected mortality rate) against small brown planthopper ([1]; 500 ppm) | insecticidal efficacy (corrected mortality rate) against western flower thrips ([2]; 50 ppm) | insecticidal efficacy (corrected mortality rate) against western flower thrips ([2]; 500 ppm)

COC(=O)N1C(=O)C(C(=O)Nc2ccc(C)cc2)=C(O)CN1c1ccc(C#N)cc1 [3-231]
A (the mortality rate is 100%): insecticidal efficacy (corrected mortality rate) against small brown planthopper ([1]; 50 ppm) | insecticidal efficacy (corrected mortality rate) against small brown planthopper ([1]; 500 ppm) | insecticidal efficacy (corrected mortality rate) against western flower thrips ([2]; 50 ppm) | insecticidal efficacy (corrected mortality rate) against western flower thrips ([2]; 500 ppm)

COC(=O)N1C(=O)C(C(=O)Nc2ccc(Cl)c(OC)c2)=C(O)CN1c1ccc(C#N)nc1 [3-429]
A (the mortality rate is 100%): insecticidal efficacy (corrected mortality rate) against small brown planthopper ([1]; 50 ppm) | insecticidal efficacy (corrected mortality rate) against small brown planthopper ([1]; 500 ppm) | insecticidal efficacy (corrected mortality rate) against western flower thrips ([2]; 50 ppm) | insecticidal efficacy (corrected mortality rate) against western flower thrips ([2]; 500 ppm)

COC(=O)N1C(=O)C(C(=O)Nc2ccc(F)cc2)=C(O)CN1c1ncc(Br)cn1 [3-238]
A (the mortality rate is 100%): insecticidal efficacy (corrected mortality rate) against small brown planthopper ([1]; 50 ppm) | insecticidal efficacy (corrected mortality rate) against small brown planthopper ([1]; 500 ppm) | insecticidal efficacy (corrected mortality rate) against western flower thrips ([2]; 50 ppm) | insecticidal efficacy (corrected mortality rate) against western flower thrips ([2]; 500 ppm)

COC(=O)N1C(=O)C(C(=O)Nc2ccc(OC)nc2)=C(O)CN1c1ccc(C#N)nc1 [3-188]
A (the mortality rate is 100%): insecticidal efficacy (corrected mortality rate) against small brown planthopper ([1]; 50 ppm) | insecticidal efficacy (corrected mortality rate) against small brown planthopper ([1]; 500 ppm) | insecticidal efficacy (corrected mortality rate) against western flower thrips ([2]; 50 ppm) | insecticidal efficacy (corrected mortality rate) against western flower thrips ([2]; 500 ppm)

COC(=O)N1C(=O)C(C(=O)Nc2cnc(OC)cn2)=C(O)CN1c1ccc(Br)nc1 [3-516]
A (the mortality rate is 100%): insecticidal efficacy (corrected mortality rate) against small brown planthopper ([1]; 50 ppm) | insecticidal efficacy (corrected mortality rate) against small brown planthopper ([1]; 500 ppm) | insecticidal efficacy (corrected mortality rate) against western flower thrips ([2]; 500 ppm)

COc1cc(N2CC(O)=C(C(=O)Nc3ccn(C)n3)C(=O)N2)cnc1C#N [1-283]
A (the mortality rate is 100%): insecticidal efficacy (corrected mortality rate) against small brown planthopper ([1]; 500 ppm) | insecticidal efficacy (corrected mortality rate) against western flower thrips ([2]; 50 ppm) | insecticidal efficacy (corrected mortality rate) against western flower thrips ([2]; 500 ppm)

COC(=O)N1C(=O)C(C(=O)Nc2cccc(OC)n2)=C(O)CN1c1ccc(C#N)nc1 [3-430]
A (the mortality rate is 100%): insecticidal efficacy (corrected mortality rate) against small brown planthopper ([1]; 50 ppm) | insecticidal efficacy (corrected mortality rate) against small brown planthopper ([1]; 500 ppm) | insecticidal efficacy (corrected mortality rate) against western flower thrips ([2]; 50 ppm) | insecticidal efficacy (corrected mortality rate) against western flower thrips ([2]; 500 ppm)

COC(=O)N1C(=O)C(C(=O)Nc2c(F)cccc2F)=C(O)CN1c1ccc(C#N)cc1 [3-452]
A (the mortality rate is 100%): insecticidal efficacy (corrected mortality rate) against small brown planthopper ([1]; 50 ppm) | insecticidal efficacy (corrected mortality rate) against small brown planthopper ([1]; 500 ppm) | insecticidal efficacy (corrected mortality rate) against western flower thrips ([2]; 500 ppm)

COC(=O)N1C(=O)C(C(=O)Nc2cnc(Cl)cn2)=C(O)CN1c1ccc(C#N)nc1 [3-422]
A (the mortality rate is 100%): insecticidal efficacy (corrected mortality rate) against small brown planthopper ([1]; 50 ppm) | insecticidal efficacy (corrected mortality rate) against small brown planthopper ([1]; 500 ppm) | insecticidal efficacy (corrected mortality rate) against western flower thrips ([2]; 50 ppm) | insecticidal efficacy (corrected mortality rate) against western flower thrips ([2]; 500 ppm)

COC(=O)N1C(=O)C(C(=O)Nc2ccc(C#N)cc2)=C(O)CN1c1ccc(C#N)nc1 [3-192]
A (the mortality rate is 100%): insecticidal efficacy (corrected mortality rate) against small brown planthopper ([1]; 50 ppm) | insecticidal efficacy (corrected mortality rate) against small brown planthopper ([1]; 500 ppm) | insecticidal efficacy (corrected mortality rate) against western flower thrips ([2]; 50 ppm) | insecticidal efficacy (corrected mortality rate) against western flower thrips ([2]; 500 ppm)

COCCOC(=O)N1C(=O)C(C(=O)Nc2ccc(F)nc2)=C(O)CN1c1ccc(Br)nc1 [3-319]
A (the mortality rate is 100%): insecticidal efficacy (corrected mortality rate) against small brown planthopper ([1]; 50 ppm) | insecticidal efficacy (corrected mortality rate) against small brown planthopper ([1]; 500 ppm) | insecticidal efficacy (corrected mortality rate) against western flower thrips ([2]; 50 ppm) | insecticidal efficacy (corrected mortality rate) against western flower thrips ([2]; 500 ppm)

Cc1ccc(NC(=O)C2=C(O)CN(c3ccc(C#N)cc3)NC2=O)cn1 [1-185]
A (the mortality rate is 100%): insecticidal efficacy (corrected mortality rate) against small brown planthopper ([1]; 500 ppm) | insecticidal efficacy (corrected mortality rate) against western flower thrips ([2]; 500 ppm)

COC(=O)N1C(=O)C(C(=O)Nc2ccc(OC)nc2)=C(O)CN1c1ccc(C#N)c(F)c1 [3-213]
A (the mortality rate is 100%): insecticidal efficacy (corrected mortality rate) against small brown planthopper ([1]; 50 ppm) | insecticidal efficacy (corrected mortality rate) against small brown planthopper ([1]; 500 ppm) | insecticidal efficacy (corrected mortality rate) against western flower thrips ([2]; 50 ppm) | insecticidal efficacy (corrected mortality rate) against western flower thrips ([2]; 500 ppm)

COC(=O)N1C(=O)C(C(=O)Nc2ccc(OC)nc2)=C(O)CN1c1cnc(C#N)c(Cl)c1 [3-166]
A (the mortality rate is 100%): insecticidal efficacy (corrected mortality rate) against small brown planthopper ([1]; 500 ppm) | insecticidal efficacy (corrected mortality rate) against western flower thrips ([2]; 500 ppm)

COC(=O)N1C(=O)C(C(=O)Nc2ccc(F)cn2)=C(O)CN1c1ccc(C#N)c(OC)c1 [3-224]
A (the mortality rate is 100%): insecticidal efficacy (corrected mortality rate) against small brown planthopper ([1]; 50 ppm) | insecticidal efficacy (corrected mortality rate) against small brown planthopper ([1]; 500 ppm) | insecticidal efficacy (corrected mortality rate) against western flower thrips ([2]; 50 ppm) | insecticidal efficacy (corrected mortality rate) against western flower thrips ([2]; 500 ppm)

COC(=O)N1C(=O)C(C(=O)Nc2ccc(C#N)cc2)=C(O)CN1c1ccc(C#N)cc1 [3-228]
A (the mortality rate is 100%): insecticidal efficacy (corrected mortality rate) against small brown planthopper ([1]; 50 ppm) | insecticidal efficacy (corrected mortality rate) against small brown planthopper ([1]; 500 ppm) | insecticidal efficacy (corrected mortality rate) against western flower thrips ([2]; 50 ppm) | insecticidal efficacy (corrected mortality rate) against western flower thrips ([2]; 500 ppm)

COC(=O)N1C(=O)C(C(=S)Nc2cccc(OC)c2)=C(O)CN1c1ccc(C#N)nc1 [4-86]
A (the mortality rate is 100%): insecticidal efficacy (corrected mortality rate) against small brown planthopper ([1]; 50 ppm) | insecticidal efficacy (corrected mortality rate) against small brown planthopper ([1]; 500 ppm) | insecticidal efficacy (corrected mortality rate) against western flower thrips ([2]; 50 ppm) | insecticidal efficacy (corrected mortality rate) against western flower thrips ([2]; 500 ppm)

CCCNC(=O)N1C(=O)C(C(=O)Nc2ccc(F)cc2)=C(O)CN1c1ccc(C#N)cc1 [3-68]
A (the mortality rate is 100%): insecticidal efficacy (corrected mortality rate) against small brown planthopper ([1]; 50 ppm) | insecticidal efficacy (corrected mortality rate) against small brown planthopper ([1]; 500 ppm) | insecticidal efficacy (corrected mortality rate) against western flower thrips ([2]; 50 ppm) | insecticidal efficacy (corrected mortality rate) against western flower thrips ([2]; 500 ppm)

COC(=O)N1C(=O)C(C(=O)Nc2ccnc(OC)c2)=C(O)CN1c1ccc(C#N)cc1 [3-446]
A (the mortality rate is 100%): insecticidal efficacy (corrected mortality rate) against small brown planthopper ([1]; 500 ppm) | insecticidal efficacy (corrected mortality rate) against western flower thrips ([2]; 500 ppm)

CCOC(=O)c1ccc(N2CC(O)=C(C(=O)Nc3ccc(F)cc3)C(=O)N2C(=O)OC)nn1 [3-206]
A (the mortality rate is 100%): insecticidal efficacy (corrected mortality rate) against small brown planthopper ([1]; 500 ppm) | insecticidal efficacy (corrected mortality rate) against western flower thrips ([2]; 500 ppm)
